Consider eight sequences from paper PMC10564139.

Construct, isoform or probe ends are uncertain for at least one entry. Where cells or extracts were used, other partners may take part. For some assays here: A negative result means that nothing was seen under these conditions. For some assays here: At least one verdict rests on a figure or table, not on a statement of the authors. Protein sequences can lack the tags named with them.

Data set [1] concerns the target T1, 6XHis-TCP4 (Arabidopsis thaliana) (UniProt Q8LPR5).
T1 sequence (looked up, limits assumed): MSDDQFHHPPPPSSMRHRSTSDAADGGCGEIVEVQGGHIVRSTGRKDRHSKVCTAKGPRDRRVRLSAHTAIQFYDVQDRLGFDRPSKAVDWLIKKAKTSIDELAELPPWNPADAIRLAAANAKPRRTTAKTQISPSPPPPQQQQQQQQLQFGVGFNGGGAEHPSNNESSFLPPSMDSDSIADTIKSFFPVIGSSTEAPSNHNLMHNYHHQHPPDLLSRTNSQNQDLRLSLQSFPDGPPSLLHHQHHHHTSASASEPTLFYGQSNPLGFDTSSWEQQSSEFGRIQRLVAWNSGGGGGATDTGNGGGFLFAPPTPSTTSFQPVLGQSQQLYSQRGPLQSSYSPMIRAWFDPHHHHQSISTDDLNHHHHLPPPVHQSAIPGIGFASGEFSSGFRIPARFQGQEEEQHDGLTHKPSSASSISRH
Put plainly: EMSA. The settings on record: self competition at 10x and 25x; 20 mM HEPES-KOH pH 7.8, 100 mM KCl, 1 mM EDTA, 0.1% BSA, 10 ng herring sperm DNA, 10% glycerol, 0.05 uM probe, room temperature 30-40 min; 9% native gel, 0.5X TBE; protein in a lysate after overexpression; protein details: 6xHis; label: 32P 5' end. A general note: Mobility shift assays separate free from complexed probe on a gel.

Data set [2] deals with T1, 6XHis-TCP4 (Arabidopsis thaliana). Kind of data set: competition with a labelled probe. The settings on record: unlabeled mCP, 10x or 25x excess; 20 mM HEPES-KOH pH 7.8, 100 mM KCl, 1 mM EDTA, 0.1% BSA, 10 ng herring sperm DNA, 10% glycerol, 0.05 uM probe, room temperature 30-40 min; 9% native gel, 0.5X TBE; protein in a lysate after overexpression; protein details: 6xHis.

Consider “ATAAGTGTGTGTGGCCCTTCATTGTTTC (double strand) [BS4]”, for which the binding result in data set [1] is reported as “binds”.
Take “ATAAGTGTGTGTTGCACTTCATTGTTTC (double strand) [mBS4]”: the binding result in data set [2] is listed as “no binding”.
As to “CTAGTTGTTGATGGCCCATTTAAAGCAA (double strand) [BS3]”, the binding result in data set [1] was “binds”.
In the case of “CTAGTTGTTGATTGCACATTTAAAGCAA (double strand) [mBS3]”, in data set [2], the binding result is reported as “no binding”.
As for “GAATATAAGCATGGTCCATGCTCAAAAA (double strand) [BS1]”, the binding result in data set [1] was “binds”.
For “GAATATAAGCATTGTTCATGCTCAAAAA (double strand) [mBS1]”, the binding result in data set [2] was “no binding”.
Regarding “TGAATAGTTCTTGGTCCAAAGCTTGTAT (double strand) [BS2]”, in data set [1], the binding result is “binds”.
Take “TGAATAGTTCTTTGTTCAAAGCTTGTAT (double strand) [mBS2]”: in data set [2], the binding result is reported as “no binding”.
